No constants are given. Whether binding was seen depends on the method and setting. Binding calls can cover weak binding; strength is not graded here. Sequences can lack the tags named with a protein.
Target: GST fusion of the ENTH domain of Ent1 (yeast epsin 1) (yeast) (UniProt Q12518)
Experiment: pull-down; GST-tagged bait on glutathione beads, 6xHis-tagged prey, overnight at 4°C; 150 mM NaCl, 4 mM DTT, 4 mM β-mercaptoethanol, 0.1% NP-40, 0.05% BSA, 20 mM HEPES pH 7.4; anti-His immunoblot, densitometry; without IP6 or no phosphoinositol additive named; both purified

Chains of the proteins cited; added tags and fusions are not shown. Lines headed by an entry give the natural chain unless they say otherwise; changes in a name come on top.
UniProt Q12518: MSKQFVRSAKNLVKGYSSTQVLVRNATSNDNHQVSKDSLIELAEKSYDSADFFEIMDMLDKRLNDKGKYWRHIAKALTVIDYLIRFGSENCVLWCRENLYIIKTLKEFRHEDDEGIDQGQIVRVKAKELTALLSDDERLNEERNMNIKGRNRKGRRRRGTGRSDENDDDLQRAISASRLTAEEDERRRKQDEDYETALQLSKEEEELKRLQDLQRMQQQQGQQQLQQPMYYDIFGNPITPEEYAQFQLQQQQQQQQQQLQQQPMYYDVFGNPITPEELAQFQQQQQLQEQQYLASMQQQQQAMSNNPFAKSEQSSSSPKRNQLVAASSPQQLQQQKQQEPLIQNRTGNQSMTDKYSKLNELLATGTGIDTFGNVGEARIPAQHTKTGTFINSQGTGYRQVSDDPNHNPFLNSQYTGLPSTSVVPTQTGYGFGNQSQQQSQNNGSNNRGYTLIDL

binding: binds
B1: His-Snc1 cytosolic tail (aa1-93) (domain or fragment, UniProt P31109 1-93)
chain: MSSSTPFDPYALSEHDEERPQNVQSKSRTAELQAEIDDTVGIMRDNINKVAERGERLTSIEDKADNLAVSAQGFKRGANRVRKAMWYKDLKMK
